Source: PubChem BioAssay AID720504 (National Center for Advancing Translational Sciences (NCATS), 2013)
Hit rate of the full screen: of about 360,000 compounds, about 10,000 (2.8%) were called active. The inconclusive results got no clear call from the source; some entries with a clear call stand among them for comparison. The call rests on the fitted dose curve; in most records, active means well fitted inhibition curve with a large enough effect; inconclusive means small, poorly fitted or top-dose-only effect; inactive means flat fitted curve, though single readings scatter. Potencies beside an inconclusive call are fits to weak or partial responses and may not hold up.

Sequences of proteins named here, by UniProt entry; tags and fusion partners are left off.
UniProt P53350, whole entry, looked up: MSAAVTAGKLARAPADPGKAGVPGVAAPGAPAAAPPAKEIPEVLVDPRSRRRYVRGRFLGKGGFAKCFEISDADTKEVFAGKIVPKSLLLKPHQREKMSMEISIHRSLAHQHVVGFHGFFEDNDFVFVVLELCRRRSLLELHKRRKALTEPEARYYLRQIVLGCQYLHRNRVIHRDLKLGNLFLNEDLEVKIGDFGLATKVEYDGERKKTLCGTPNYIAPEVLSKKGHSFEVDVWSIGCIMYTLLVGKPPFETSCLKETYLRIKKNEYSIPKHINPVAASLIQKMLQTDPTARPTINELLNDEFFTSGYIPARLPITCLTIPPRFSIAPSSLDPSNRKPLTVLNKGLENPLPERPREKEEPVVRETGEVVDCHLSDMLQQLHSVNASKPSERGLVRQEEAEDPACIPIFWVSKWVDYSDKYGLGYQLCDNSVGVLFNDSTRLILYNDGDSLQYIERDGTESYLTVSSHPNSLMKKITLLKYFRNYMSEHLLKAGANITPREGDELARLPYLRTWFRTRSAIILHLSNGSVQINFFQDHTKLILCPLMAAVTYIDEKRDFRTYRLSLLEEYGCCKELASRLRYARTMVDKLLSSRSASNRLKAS

target: Serine/threonine-protein kinase PLK1 (Homo sapiens) (UniProt P53350); assay: qHTS for Inhibitors of PLK1-PDB (polo-like kinase 1 - polo-box domain): Primary Screen; conditions: Plk1 PBD binding of FITC phosphopeptide, fluorescence polarization; further: nearly all actives have a fitted effect of over 65% in size; on max response, negative = inhibition: series mostly up to about 57 µM
On the % scale 0 is the no-effect control and ±100 the full control effect; potency means the concentration at half of the fitted maximal effect.

Question: For `O=C(/C=C/c1ccc(Br)cc1)NC(=S)N1CCOCC1`, which max response, negative = inhibition is on record?
Answer: inactive: -3.97%

Question: With `COc1ccc(CN(C)C(=O)Cn2cc(C)c(=O)[nH]c2=O)cc1OC` as the compound, how does the Potency read?
Answer: active: 26.7 µM

Question: `S=c1nc(-c2sccc2OCc2ccc(Cl)cc2Cl)[nH][nH]1` was tested. Which Potency did it give?
Answer: inconclusive: 33.6 µM [inhibitor, partial curve]

Question: For `N#C/C(=N\Nc1cccc([N+](=O)[O-])c1)C(=O)c1ccc(Br)cc1`, which Potency is on record?
Answer: active: 29.9 µM

Question: With `O=C(NCc1ccccc1)[C@@H]1CCCN1C(=O)[C@@H]1CCCN1C(=O)c1cccs1` as the compound, how does the max response, negative = inhibition read?
Answer: inactive: 1.06%

Question: With `CCCCCCn1c(=O)[nH]c2nc3cc(N)ccc3nc2c1=O` as the compound, how does the Potency read?
Answer: inconclusive: 5.97 µM [inhibitor, partial curve]

Question: `O=C(c1ccc(OCc2cn3ccccc3n2)cc1)N1CCN(S(=O)(=O)c2ccccc2F)CC1` was tested. Which max response, negative = inhibition did it give?
Answer: inactive: 1.04%

Question: How did the Potency turn out when `Cc1ccc(CNC(=O)CS(=O)Cc2nc(-c3cccs3)oc2C)cc1` (stereo not drawn) was run?
Answer: inconclusive: 21.2 µM [inhibitor, partial curve]

Question: How did the max response, negative = inhibition turn out when `CCCc1nc2nc(C)c(NS(=O)(=O)c3ccc4c(c3)CCCC4)c(=O)n2[nH]1` was run?
Answer: inactive: -3.41%

Question: With `O=C1c2ccccc2-c2nnc(-c3ccc(O)cc3)cc21` as the compound, how does the Potency read?
Answer: inconclusive: 33.6 µM [inhibitor, single point]

Question: For `O=C(NCC1CCCO1)c1cc(-c2ccco2)nc2ccccc12` (stereo not drawn), which Potency is on record?
Answer: inconclusive: 26.7 µM [inhibitor, partial curve]

Question: `Cc1ccc(C(=O)NNC(=O)CSc2nc(N)cc(N)n2)cc1` was tested. Which Potency did it give?
Answer: active: 26.7 µM

Question: How did the Potency turn out when `CCNc1ccc(Br)cc(C(=O)/C=C/c2c(Cl)cccc2Cl)c1=O` was run?
Answer: inconclusive: 26.7 µM [inhibitor, partial curve]

Question: With `Cc1[nH]c(=O)[nH]c(=O)c1/C=N/NC(=O)[C@H](CC(C)C)NC(=O)OC(C)(C)C` as the compound, how does the max response, negative = inhibition read?
Answer: inactive: -1.9%

Question: `CCOC(=O)C1(CCCc2ccccc2)CCN(Cc2cn(CC)nc2C)CC1` was tested. Which max response, negative = inhibition did it give?
Answer: inactive: -12.5%

Question: For `CC(C)c1nnc(NC(=O)c2nc(S(=O)(=O)Cc3ccccc3)ncc2Cl)s1`, which Potency is on record?
Answer: inconclusive: 29.9 µM [inhibitor, single point]

Question: For `CCN(CC)S(=O)(=O)c1ccc2oc(SCC(=O)NC3CC3)nc2c1`, which Potency is on record?
Answer: active: 21.2 µM

Question: `CCOc1ccc(CCNC(=O)Cn2c(=O)oc3ccccc32)cc1OCC` was tested. Which Potency did it give?
Answer: inconclusive: 26.7 µM [inhibitor, single point]

Question: With `Cc1ccc(CNC(=O)CN2CCCC(C)C2)cc1` (stereo not drawn) as the compound, how does the max response, negative = inhibition read?
Answer: inactive: -4.33%

Question: For `CCCCCNC(=O)C(CCc1ccccc1)n1c(=O)c(-c2ccccc2)nc2ccccc21` (stereo not drawn), which max response, negative = inhibition is on record?
Answer: inactive: -17.9%

Question: Which Potency does the source give for `O=C1CN(c2ccccc2)C(=S)N1C(=O)c1ccccc1` here?
Answer: active: 26.7 µM

Question: `Nc1nonc1C(=O)N1CCCCC1` was tested. Which Potency did it give?
Answer: inconclusive: 23.8 µM [inhibitor, single point]

Question: `CCOC(=O)C(C)C(C)=O` (stereo not drawn) was tested. Which max response, negative = inhibition did it give?
Answer: inactive: -9.74%

Question: For `CN1c2ccccc2C(O)=C(C(=S)Nc2ccccc2)S1(=O)=O`, which max response, negative = inhibition is on record?
Answer: inactive: -23.9%

Question: `CN(CC(=O)NCc1ccc(Cl)cc1)S(=O)(=O)c1cccs1` was tested. Which Potency did it give?
Answer: inconclusive: 33.6 µM [inhibitor, single point]

Question: `Cc1ccc(C2C(/C=C3/SC(=S)NC3=O)=C(c3cccs3)Oc3ccccc32)cc1` (stereo not drawn) was tested. Which Potency did it give?
Answer: inconclusive: 37.7 µM [inhibitor, single point]

Question: How did the Potency turn out when `O=C1NC(=O)/C(=C/c2cccc3ccccc23)S1` was run?
Answer: active: 26.7 µM

Question: How did the Potency turn out when `COc1ccc(/C=C/C(=O)NC(=S)Nc2ccc(S(=O)(=O)Nc3nccnc3OC)cc2)cc1` was run?
Answer: inconclusive: 29.9 µM [inhibitor, partial curve]

Question: With `NC(=O)c1cc([N+](=O)[O-])ccc1NCc1cccnc1` as the compound, how does the Potency read?
Answer: inconclusive: 21.2 µM [inhibitor, single point]

Question: Which Potency does the source give for `CCOC(=O)C1=C(C#N)C(C(=O)OCC)c2ncccc21` (stereo not drawn) here?
Answer: active: 3.36 µM

Question: With `Cc1ccccc1CS(=O)(=O)c1nnc([C@H](Cc2ccccc2)NC(=O)OC(C)(C)C)o1` as the compound, how does the Potency read?
Answer: active: 7.52 µM

Question: Which Potency does the source give for `O=C(O)c1ccc(N/N=C/C2=C(N3CCOCC3)C(=C\c3ccccc3)/CC2)cc1` here?
Answer: inconclusive: 29.9 µM [inhibitor, partial curve]

Question: With `O=c1nc2ccc(Cl)cn2c2ccc(S(=O)(=O)N3CCCCC3)cc12` as the compound, how does the Potency read?
Answer: inconclusive: 26.7 µM [inhibitor, single point]

Question: For `COc1cc(C2C(C#N)=C(N)Oc3n[nH]c(-c4ccncc4)c32)cc(OC)c1OC` (stereo not drawn), which Potency is on record?
Answer: inconclusive: 21.2 µM [inhibitor, partial curve]

Question: Which max response, negative = inhibition does the source give for `CC(C)Cc1ccc(C(C)CC2=CCC(CN(C)C)C2=O)cc1` (stereo not drawn) here?
Answer: inactive: -24.9%

Question: With `c1csc(-c2nnsc2-c2nc3ccccc3[nH]2)c1` as the compound, how does the Potency read?
Answer: inconclusive: 29.9 µM [inhibitor, partial curve]

Question: Which Potency does the source give for `COc1ccc(S(N)(=O)=O)cc1N(C)S(=O)(=O)c1ccccc1` here?
Answer: active: 26.7 µM

Question: `CC(C)C(=O)Nc1nnc(SCC(=O)N2C(C)CCCC2C)s1` (stereo not drawn) was tested. Which Potency did it give?
Answer: inconclusive: 21.2 µM [inhibitor, partial curve]

Question: How did the Potency turn out when `CCOC(=O)C(NC(C)=O)(Nc1ccc(S(=O)(=O)Nc2ncccn2)cc1)C(F)(F)F` (stereo not drawn) was run?
Answer: active: 29.9 µM

Question: `Cc1cccc(CN2C(=O)/C(=C\c3ccc(C(=O)NCCN4CCOCC4)cc3)Sc3ccccc32)c1` was tested. Which max response, negative = inhibition did it give?
Answer: inactive: -15.1%

Question: For `COCCCNC(=O)CSC1=Nc2ccccc2C2=NC(c3ccccc3)C(=O)N12` (stereo not drawn), which Potency is on record?
Answer: inconclusive: 26.7 µM [inhibitor, single point]

Question: For `CSc1nc(-c2ccco2)nn1S(=O)(=O)c1ccc(C)cc1`, which Potency is on record?
Answer: inconclusive: 26.7 µM [inhibitor, single point]

Question: For `O=C1c2ccccc2C(=O)N1/N=C/c1ccc(O)c(O)c1`, which Potency is on record?
Answer: inconclusive: 26.7 µM [inhibitor, partial curve]

Question: With `S=c1[nH]nc(-c2ccc(Cl)cc2)n1CC1CCCO1` (stereo not drawn) as the compound, how does the Potency read?
Answer: inconclusive: 29.9 µM [inhibitor, single point]

Question: With `CCOC(=O)c1cnc2ccc(OC)cc2c1Nc1ccc(N2CCN(C)CC2)cc1` as the compound, how does the Potency read?
Answer: active: 6.7 µM

Question: Which Potency does the source give for `O=C(Nc1ccc(S(=O)(=O)N2CCCCC2c2cccnc2)cc1)c1c(F)cccc1F` (stereo not drawn) here?
Answer: inconclusive: 7.52 µM [inhibitor, single point]

Question: How did the Potency turn out when `CC(C)(C)CC(C)(C)SSc1n[nH]c(=S)s1` was run?
Answer: active: 26.7 µM

Question: Which max response, negative = inhibition does the source give for `O=C1Nc2ccc(Br)cc2C1=C1CCCCC1` here?
Answer: inactive: -26%

Question: How did the Potency turn out when `CCCOC(=O)Cc1c(O)c2ccccc2[nH]c1=O` was run?
Answer: inconclusive: 29.9 µM [inhibitor, partial curve]

Question: With `Cc1cccc(NC(=O)CN2CCN(C(=O)c3ccc(-c4nc5ccccc5s4)o3)CC2)c1C` as the compound, how does the Potency read?
Answer: inconclusive: 67 µM [inhibitor, partial curve]

Question: How did the Potency turn out when `CCOC(=O)c1c(C)oc2c1c(C(c1cccnc1)N1CCCCC1)c(O)c1ccccc12` (stereo not drawn) was run?
Answer: active: 11.9 µM

Question: `Cc1cc(C)cc(OCCNC(=O)c2cc(S(=O)(=O)N3CCOCC3)ccc2F)c1` was tested. Which max response, negative = inhibition did it give?
Answer: inactive: -2.1%

Question: How did the Potency turn out when `O=C1CCNc2ccc(-c3ccccc3)cc21` was run?
Answer: active: 9.47 µM

Question: Which Potency does the source give for `Cc1ccccc1NC(=S)NC(=O)/C=C/c1ccco1` here?
Answer: active: 21.2 µM

Question: How did the max response, negative = inhibition turn out when `Cc1cccc2cc(/C=N/NC(=O)[C@H]3C[C@@H]3c3ccccc3)c(Cl)nc12` was run?
Answer: inactive: -8.8%

Question: Which Potency does the source give for `Cc1ccc(C2C(C#N)=C(N)Oc3nc(-c4ccccc4)[nH]c32)o1` (stereo not drawn) here?
Answer: inconclusive: 33.6 µM [inhibitor, partial curve]

Question: How did the Potency turn out when `CC(Sc1nnc(N)s1)c1ccccc1Cl` (stereo not drawn) was run?
Answer: inconclusive: 29.9 µM [inhibitor, partial curve]

Question: `CC1=C/C(=C/N(C)c2ccccc2)C(=O)S1` was tested. Which Potency did it give?
Answer: active: 26.7 µM

Question: `O=C(Nc1nc(-c2ccccc2)cs1)Nc1ccc(F)cc1F` was tested. Which Potency did it give?
Answer: inconclusive: 23.8 µM [inhibitor, partial curve]

Question: `O=C(CCc1nnc2ccc(NCc3ccccc3)nn12)NC1CCCCC1` was tested. Which Potency did it give?
Answer: active: 23.8 µM

Question: With `O=C(c1ccccc1)c1ccc(CN2C(=O)c3ccccc3C2=O)o1` as the compound, how does the Potency read?
Answer: inconclusive: 37.7 µM [inhibitor, single point]

Question: `O=C(Oc1ccc(=O)n(-c2ccccc2)n1)c1ccc(Cl)cc1` was tested. Which Potency did it give?
Answer: inconclusive: 29.9 µM [inhibitor, partial curve]

Question: Which max response, negative = inhibition does the source give for `C[C@@H]1CCCCO[C@H](CN(C)S(=O)(=O)c2cccs2)[C@@H](C)CN([C@H](C)CO)C(=O)c2cc(NC(=O)Nc3ccc4c(c3)OCO4)ccc2O1` here?
Answer: inconclusive: -26.9% [inhibitor]

Question: How did the max response, negative = inhibition turn out when `COc1ccccc1-c1cc(-c2ccccc2)nc(SCC(=O)O)c1C#N` was run?
Answer: inactive: -14.2%

Question: Which Potency does the source give for `Cc1ccc(NC(=O)c2cc(NC(=O)c3ccccc3C(=O)O)ccc2N2CCCCC2)cc1` here?
Answer: inconclusive: 21.2 µM [inhibitor, single point]

Question: Which Potency does the source give for `OC1(c2cccnc2)CCN(Cc2nnnn2C2CCCCC2)CC1` here?
Answer: inconclusive: 21.2 µM [inhibitor, single point]

Question: For `O=C(Nc1ccccc1)N1CCC(O)(c2cccc(C(F)(F)F)c2)CC1`, which max response, negative = inhibition is on record?
Answer: inactive: 4.52%

Question: How did the Potency turn out when `CC1=CC(=O)C(Sc2ccc(C)cc2)=CC1=O` was run?
Answer: active: 0.844 µM

Question: `O=C(C(=O)N1CCc2ccccc2C1)c1c[nH]c2ccccc12` was tested. Which Potency did it give?
Answer: inconclusive: 8.44 µM [inhibitor, single point]

Question: For `O=c1c(-c2c(O)cc(O)c3c(=O)cc(-c4ccc(O)cc4)oc23)c(-c2ccc(O)cc2)oc2cc(O)cc(O)c12`, which Potency is on record?
Answer: inconclusive: 23.8 µM [inhibitor, partial curve]

Question: How did the Potency turn out when `S=c1[nH]nc2ccccn12` was run?
Answer: inconclusive: 23.8 µM [inhibitor, partial curve]

Question: Which Potency does the source give for `NC1=NOC(=O)C1C1CCCCC1` (stereo not drawn) here?
Answer: inconclusive: 29.9 µM [inhibitor, partial curve]

Question: How did the Potency turn out when `CCCCN1C(=O)C(=O)c2cc(Cl)ccc21` was run?
Answer: inconclusive: 29.9 µM [inhibitor, partial curve]
